The test system of this test is CD8F1 mice, subcutaneous mammary adenocarcinoma, T/C%. Briefly: NCI In Vivo Anticancer Drug Screen. Data for tumor model Mammary Adenocarcinoma CD8F1 (subcutaneous) in CD8F1. The following applies: higher T/C = larger tumour. In short, it runs like this: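 Ratio of treated to vehicle-control outcome, based on either survival or tumor size, in mice bearing transplantable tumors given the test compound.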

Setting [1] is: T/C endpoint: median tumor weight (est.), dose: 100.0 mg/kg/injection, schedule: Q07DX005 (ip), vehicle: suspension in saline.
The mark [2] stands for this setting: T/C endpoint: median tumor weight (est.), dose: 200.0 mg/kg/injection, schedule: Q07DX005 (ip), vehicle: suspension in saline.
Setting [3] is: T/C endpoint: median tumor weight change, dose: 125.0 mg/kg/injection, schedule: Q01DX001 (ip), vehicle: suspension in saline.
Setting [4] is: T/C endpoint: median tumor weight change, dose: 250.0 mg/kg/injection, schedule: Q01DX001 (ip), vehicle: suspension in saline.
Setting [5] is: T/C endpoint: median tumor weight (est.), dose: 400.0 mg/kg/injection, schedule: Q07DX005 (ip), vehicle: saline with Tween-80.

The list does not hold the whole screen: it is rich in T/C values a quarter to a half above the control, in often repeated tests (any T/C) and in doses without a T/C. Further doses and runs are listed elsewhere. T/C is the treated group as % of the vehicle group. Schedules are NCI's codes, read here as Q, the interval in days (D) or hours (H), X, the number of doses. Some T/C values carry the count of animals alive at the toxicity check (mostly the fifth day); where none is given, no animal had died by that day. Some entries were tested several times; the values are given in rising order. Some doses have a count of surviving animals in place of a T/C: the source files T/C as zero there, which appears to mark a toxic dose or a test without result, not a measured value. Survivors were counted at the toxicity check, usually on the fifth day, unless a day is given; later deaths do not show.

Take `c1cc(-c2cc3ccc(C4=NCCN4)cc3[nH]2)ccc1C1=NCCN1`: the survivor count is, setting by setting: (T/C endpoint: median tumor weight (est.), dose: 6.25 mg/kg/injection, schedule: Q07DX005 (ip), vehicle: saline) 6 of 10 on day 30; (T/C endpoint: median tumor weight (est.), dose: 50.0 mg/kg/injection, schedule: Q07DX005 (ip), vehicle: suspension in saline) 3 of 10 on day 30; under setting [1], 0 of 10 on day 30; under setting [2], 0 of 10 on day 30; under setting [3], 1 of 10 on day 28; under setting [4], 0 of 10 on day 28. Besides, the T/C reads like this: (T/C endpoint: median tumor weight (est.), dose: 12.5 mg/kg/injection, schedule: Q07DX005 (ip), vehicle: saline, evaluated on day 30) 149 % of control; (T/C endpoint: median tumor weight change, dose: 31.0 mg/kg/injection, schedule: Q01DX001 (ip), vehicle: suspension in saline, evaluated on day 28) 136 % of control.
In the case of `C[CH2][Sn]([CH2]C)([O]S(C)(=O)=O)[O]S(C)(=O)=O`, the survivor count is, setting by setting: (T/C endpoint: median tumor weight change, dose: 31.25 mg/kg/injection, schedule: Q01DX001 (ip), vehicle: saline) 3 of 10 on day 37; (T/C endpoint: median tumor weight change, dose: 62.5 mg/kg/injection, schedule: Q01DX001 (ip), vehicle: saline) 0 of 10 on day 37.
As for `NC(=O)c1csc(C2OC(CO)C(O)C2O)n1` (configuration not stated), the survivor count (T/C endpoint: median tumor weight change, dose: 2000.0 mg/kg/injection, schedule: Q01DX001 (ip), vehicle: water) was 4 of 10 on day 28.
For `N#Cc1nc(C#N)c(Sc2ccccc2)c(Sc2ccccc2)c1Sc1ccccc1`, the T/C is 125 % of control (T/C endpoint: median tumor weight (est.), dose: 6.25 mg/kg/injection, schedule: Q07DX005 (ip), vehicle: saline with Tween-80, evaluated on day 30); 133 [9 of 10 alive on day 30] and 135 % of control (T/C endpoint: median tumor weight (est.), dose: 25.0 mg/kg/injection, schedule: Q07DX005 (ip), vehicle: saline with Tween-80, evaluated on day 30). Moreover, for the setting “T/C endpoint: median tumor weight (est.), dose: 12.5 mg/kg/injection, schedule: Q07DX005 (ip), vehicle: saline with Tween-80”, the survivor count is listed as 5 of 10 on day 30.
Consider `CCCCNC(C)[C@]1(O)Cc2c(O)c3c(c(O)c2[C@@H](OC2CC(N)C(O)C(C)O2)C1)C(=O)c1c(OC)cccc1C3=O` (some centres not stated), for which the T/C (T/C endpoint: median tumor weight (est.), dose: 1.78 mg/kg/injection, schedule: Q07DX005 (ip), vehicle: water, evaluated on day 30) was 141 % of control. For the same compound, the survivor count (T/C endpoint: median tumor weight (est.), dose: 9.0 mg/kg/injection, schedule: Q07DX005 (ip), vehicle: water) was 5 of 10.
As for `CN(C)c1ccc2c(NCCCCCCNc3ccnc4cc(N(C)C)ccc34)ccnc2c1`, the T/C (T/C endpoint: median tumor weight change, dose: 62.0 mg/kg/injection, schedule: Q01DX001 (ip), vehicle: distilled water + Tween-80 + alcohol, evaluated on day 31) was 130 % of control. In addition, the survivor count is 6 of 10 on day 56 (T/C endpoint: median tumor weight change, dose: 125.0 mg/kg/injection, schedule: Q01DX001 (ip), vehicle: distilled water + Tween-80 + alcohol); 5 of 10 on day 31 (T/C endpoint: median tumor weight change, dose: 125.0 mg/kg/injection, schedule: Q01DX001 (ip), vehicle: distilled water + Tween-80); 3 of 10 on day 31 (T/C endpoint: median tumor weight change, dose: 250.0 mg/kg/injection, schedule: Q01DX001 (ip), vehicle: distilled water + Tween-80); 1 of 10 on day 31 (T/C endpoint: median tumor weight change, dose: 500.0 mg/kg/injection, schedule: Q01DX001 (ip), vehicle: distilled water + Tween-80 + alcohol); 1 of 10 on day 31 (T/C endpoint: median tumor weight change, dose: 500.0 mg/kg/injection, schedule: Q01DX001 (ip), vehicle: distilled water + Tween-80).
Take `CCC[CH2][Hg][Cl]`: the T/C was 144 % of control (T/C endpoint: median tumor weight (est.), dose: 1.25 mg/kg/injection, schedule: Q07DX005 (ip), vehicle: Klucel (hydroxypropylcellulose) (HPC), evaluated on day 30) and 140 % of control (T/C endpoint: median tumor weight (est.), dose: 10.0 mg/kg/injection, schedule: Q07DX005 (ip), vehicle: Klucel (hydroxypropylcellulose) (HPC), evaluated on day 30). Further, the survivor count (T/C endpoint: median tumor weight (est.), dose: 40.0 mg/kg/injection, schedule: Q07DX005 (ip), vehicle: Klucel (hydroxypropylcellulose) (HPC)) was 5 of 10 on day 30.
Consider `CCCCCCCCCCCCCCCCCCOCC(COP(=O)([O-])OCC[N+](C)(C)C)OC` (configuration not stated), for which the survivor count is 0 of 10 on day 28 under setting [3] and 0 of 10 on day 28 under setting [4].
For the compound `O=CC(=O)c1ccc(O)cc1`, the survivor count is listed as 1 of 10 on day 30 under setting [2] and 0 of 10 on day 30 (T/C endpoint: median tumor weight (est.), dose: 400.0 mg/kg/injection, schedule: Q07DX005 (ip), vehicle: suspension in saline).
Regarding `COC1=C(C)C(=O)C2=C(C1=O)C(CO)N1C(C#N)C3CC4C(C1C2N1CCOC41)N3C` (configuration not stated), for the setting “T/C endpoint: median tumor weight change, dose: 2.5 mg/kg/injection, schedule: Q01DX001 (ip), vehicle: saline + alcohol, evaluated on day 28”, the T/C was 142 % of control. Moreover, the survivor count (T/C endpoint: median tumor weight change, dose: 10.0 mg/kg/injection, schedule: Q01DX001 (ip), vehicle: saline + alcohol) was 0 of 10 on day 28 and 1 of 10 on day 26.
`[I][Hg][CH2]C1COC([CH2][Hg][I])CO1` (configuration not stated): the survivor count by setting is: under setting [1], 4 of 10 on day 30; under setting [2], 2 of 10 on day 30.
On to `C[C@H](CCC[C@H](C)OS(=O)(=O)c1ccccc1)OS(=O)(=O)c1ccccc1`, for which the survivor count by setting is: under setting [5], 0 of 10 on day 30; (T/C endpoint: median tumor weight (est.), dose: 800.0 mg/kg/injection, schedule: Q07DX005 (ip), vehicle: saline with Tween-80) 0 of 10 on day 30.
As for `C[n+]1cccc(NC(=O)c2ccc(NC(=O)C34CCC(C(=O)Nc5ccc(C(=O)Nc6ccc[n+](C)c6)cc5)(CC3)CC4)cc2)c1`, the survivor count is, setting by setting: (T/C endpoint: median tumor weight change, dose: 200.0 mg/kg/injection, schedule: Q01DX001 (ip), vehicle: saline with Tween-80) 1 of 10 on day 30 and 2 of 10 on day 30; (T/C endpoint: median tumor weight change, dose: 400.0 mg/kg/injection, schedule: Q01DX001 (ip), vehicle: saline with Tween-80) 0 of 10 on day 30 and 4 of 10 on day 38; (T/C endpoint: median tumor weight change, dose: 800.0 mg/kg/injection, schedule: Q01DX001 (ip), vehicle: saline with Tween-80) 0 of 10 on day 30.
In the case of `Cc1c2c(c(O)c3c(O)cccc13)C(=O)C1(O)C(O)=C(C(=O)NCNc3ccc(C(N)=O)cn3)C(=O)C(N(C)C)C1C2` (configuration not stated), the survivor count (T/C endpoint: median tumor weight change, dose: 250.0 mg/kg/injection, schedule: Q01DX001 (ip), vehicle: saline) was 6 of 10 on day 34.
As to `CC(C)CC(=O)NC(C(=O)NC(C(=O)NC(CC(C)C)C(O)CC(=O)NC(C)C(=O)NC(CC(C)C)C(O)CC(=O)O)C(C)C)C(C)C` (configuration not stated), the T/C is, setting by setting: (T/C endpoint: median tumor weight change, dose: 125.0 mg/kg/injection, schedule: Q01DX001 (ip), vehicle: Klucel (hydroxypropylcellulose) (HPC), evaluated on day 36) 125 % of control; (T/C endpoint: median tumor weight change, dose: 250.0 mg/kg/injection, schedule: Q01DX001 (ip), vehicle: Klucel (hydroxypropylcellulose) (HPC), evaluated on day 36) 130 % of control. For the same compound, the survivor count runs as follows: (T/C endpoint: median tumor weight change, dose: 500.0 mg/kg/injection, schedule: Q01DX001 (ip), vehicle: Klucel (hydroxypropylcellulose) (HPC)) 4 of 10 on day 36; (T/C endpoint: median tumor weight change, dose: 1000.0 mg/kg/injection, schedule: Q01DX001 (ip), vehicle: Klucel (hydroxypropylcellulose) (HPC)) 0 of 10 on day 36.
As for `CC(=O)Nc1ccc(C(=O)C=O)cc1`, the survivor count under setting [5] is given as 5 of 10 on day 32.
Take `Nc1nncs1`: the T/C (T/C endpoint: median tumor weight (est.), dose: 100.0 mg/kg/injection, schedule: Q07DX005 (ip), vehicle: Klucel (hydroxypropylcellulose) (HPC), evaluated on day 30) was 126 % of control.
Take `CCC(C)C(=O)OC1C(=O)OC2CC3C(C)=CC(=O)C(O)C3(C)C3C4(O)OCC23C1C(C)C4O` (configuration not stated): the survivor count is, setting by setting: (T/C endpoint: median tumor weight (est.), dose: 2.0 mg/kg/injection, schedule: Q07DX005 (ip), vehicle: saline with Tween-80) 6 of 10 on day 30; (T/C endpoint: median tumor weight (est.), dose: 8.0 mg/kg/injection, schedule: Q07DX005 (ip), vehicle: saline with Tween-80) 1 of 10 on day 30; (T/C endpoint: median tumor weight (est.), dose: 8.0 mg/kg/injection, schedule: Q07DX005 (ip), vehicle: saline) 4 of 10 on day 30; (T/C endpoint: median tumor weight (est.), dose: 16.0 mg/kg/injection, schedule: Q07DX005 (ip), vehicle: saline with Tween-80) 0 of 10 on day 30.
Take `CC1=CC(C)(C)Nc2ccc(CSc3ccccc3)cc21`: the T/C (T/C endpoint: median tumor weight change, dose: 250.0 mg/kg/injection, schedule: Q01DX001 (ip), vehicle: DMSO, evaluated on day 28) was 149 % of control.
As for `CC1=C(C)C(=O)O[C@@H]([C@](C)(O)[C@]2(O)CC[C@@]3(O)[C@@H]4C[C@H]5O[C@]56[C@@H](O)C=CC(=O)[C@]6(C)[C@H]4CC[C@]23C)C1`, the survivor count is given as 1 of 10 on day 29 (T/C endpoint: median tumor weight change, dose: 150.0 mg/kg/injection, schedule: Q01DX001 (ip), vehicle: saline) and 0 of 10 on day 29 (T/C endpoint: median tumor weight change, dose: 300.0 mg/kg/injection, schedule: Q01DX001 (ip), vehicle: saline).

Values taken from PubChem BioAssay AID220 (DTP/NCI, 2004).
